Consider five compounds from patent US10365262B2, “Method of monitoring a parameter of a hydrocarbon well, pipeline or formation” (JOHNSON MATTHEY PUBLIC LIMITED COMPANY, priority 2015, dated 2019).

The data set can be described thus: Detectability (limit of detection) by GC-MS after solid phase extraction and derivatisation. The settings on record: GC-MS (NCI, SIM); tracers diluted to 25-40 ppb in deionised water; calculated from standard error; lower is better. As for the experimental part:
Example tracers Ex 1 to Ex 3 were analysed to determine their detectability using GC-MS. The detectability was determined by diluting the tracer using acetonitrile to levels of 10 ppm and analysing it on a GC-MS to determine the retention time. The tracers were then further diluted to 25, 30, 35 and 40 ppb using deionised water. The tracers were then extracted using solid phase extraction and analysed by GC-MS. Prior to extraction the solution is acidified to convert all of the tracer to the acid form. In this way either the anion (for example, the dissolved salt) or the acid can prepared for analysis. For the solid phase extraction 25 ml of the tracer solution with 0.5 ml of internal standard of 2,6-bis(trifluoroethyl)-benzoic acid at a concentration of 1.05 ppm and 0.25 ml of concentrated HCl were run on a solid phase extraction instrument. This technique concentrates the solution 20-fold, e.g. to 40 to 800 ppb. After this technique, 1 ml of sample was added to a GC vial, as well as 0.5 ml of 4% derivatising agent 2,3,4,5,6-pentafluorobenzyl bromide made up with acetone. The sample was heated at 95° C. for 30 minutes and then run on the GC-MS with the following parameters:
Since the purpose of the study was to compare performance between the tracers, the LoD was calculated in arbitrary units that permit direct comparison between the examples. The LoD was calculated based on the standard error of the results obtained, which is used to determine the level at which the tracer could be reliably detected. The results are shown in table 1 along with data for prior art comparative tracers PA 1 to PA 2.
For the compound `COc1c(F)ccc(C(=O)O)c1F` [Ex 3, 2,4-Difluoro-3-methoxybenzoic acid], the LoD is recorded as 0.1000 arbitrary units.

Turning to `COc1c(F)cc(C(=O)O)cc1F` [Ex 2, 3,5-Difluoro-4-methoxybenzoic acid], the LoD is 0.0787 arbitrary units.

Regarding `O=C(O)c1cccc(OC(F)F)c1` [Ex 1, 3-(Difluoromethoxy)benzoic acid], the LoD is given as 0.0825 arbitrary units.

For the compound `O=C(O)c1ccccc1F` [PA 1, 2-Fluorobenzoic Acid, reference compound], the LoD is listed as 0.0577 arbitrary units.

As to `O=C(O)c1c(F)cccc1F` [PA 2, 2,6-Difluorobenzoic Acid, reference compound], the LoD was 0.2948 arbitrary units.
